From PubChem BioAssay AID1445 (SRMLSC, 2008)
The campaign covered roughly 220,000 compounds. About 910 (0.41%) were called active. Inconclusive results, whose numbers are uncertain, are shown with a selection of clear calls.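 The calls were made as follows: active = primary inhibition above the hit cutoff, then over 50% inhibition at one or more dose response concentrations (cut at about 23% in these data, passing the limit was not always enough); inconclusive = conflicting primary data, or primary hits not chosen for dose response; inactive = low primary inhibition, or under 50% at every dose.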

Protein sequences, listed by entry. Tags and fused reporters are not part of them. Lines headed by an entry give the natural chain unless they say otherwise; changes in a name come on top.
UniProt O96935: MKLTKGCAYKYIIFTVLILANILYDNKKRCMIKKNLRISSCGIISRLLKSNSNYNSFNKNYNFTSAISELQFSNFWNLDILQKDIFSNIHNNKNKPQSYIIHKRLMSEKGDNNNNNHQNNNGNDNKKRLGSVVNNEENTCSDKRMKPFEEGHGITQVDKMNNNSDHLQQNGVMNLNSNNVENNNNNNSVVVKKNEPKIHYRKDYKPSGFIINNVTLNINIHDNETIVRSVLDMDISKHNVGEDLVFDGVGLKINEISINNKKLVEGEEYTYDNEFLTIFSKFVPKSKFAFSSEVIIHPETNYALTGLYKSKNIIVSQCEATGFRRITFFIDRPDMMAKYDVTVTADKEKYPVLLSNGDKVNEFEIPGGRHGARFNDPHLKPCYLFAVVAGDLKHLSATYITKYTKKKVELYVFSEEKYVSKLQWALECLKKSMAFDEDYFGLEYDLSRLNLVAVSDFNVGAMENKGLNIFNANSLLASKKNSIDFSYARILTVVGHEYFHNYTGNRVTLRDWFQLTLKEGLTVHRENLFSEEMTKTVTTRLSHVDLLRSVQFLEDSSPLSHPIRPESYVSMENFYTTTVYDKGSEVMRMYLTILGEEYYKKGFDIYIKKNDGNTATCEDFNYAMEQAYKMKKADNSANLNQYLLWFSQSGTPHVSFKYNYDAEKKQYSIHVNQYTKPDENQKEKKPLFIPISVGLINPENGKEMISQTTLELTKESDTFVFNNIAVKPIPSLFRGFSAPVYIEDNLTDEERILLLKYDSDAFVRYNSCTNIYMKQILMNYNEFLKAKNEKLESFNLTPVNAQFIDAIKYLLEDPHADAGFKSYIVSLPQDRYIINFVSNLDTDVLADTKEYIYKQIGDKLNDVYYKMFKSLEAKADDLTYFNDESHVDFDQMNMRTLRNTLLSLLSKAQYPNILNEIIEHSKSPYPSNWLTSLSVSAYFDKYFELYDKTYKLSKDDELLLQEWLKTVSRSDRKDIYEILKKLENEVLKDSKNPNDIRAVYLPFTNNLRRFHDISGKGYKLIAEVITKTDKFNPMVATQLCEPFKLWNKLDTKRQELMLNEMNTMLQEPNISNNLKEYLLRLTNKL

What follows are molecules tested against Aminopeptidase N (Plasmodium falciparum (isolate 3D7)) (UniProt O96935) (assay: P. falciparum M1AAP inhibitors, biochemical, fluorogenic H-Leu-NHMec substrate, 1536-well (AID 1445;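 also: plate controls were DMSO full reaction for no effect and no enzyme background for full effect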)). Settings: recombinant M1AAP, H-Leu-NHMec fluorogenic kinetic assay; at 30 µM, active compounds read high unless noted.
With `CCOC(=O)Cc1cc(=O)[nH]c(Nc2nc3ccccc3o2)n1` the inhibition was inconclusive: 25.5%. For `COc1cc(/C=N/N=C2/C(=O)Nc3ccccc32)cc(OC)c1O`, the inhibition was inconclusive: 25.9%. In the case of `CC(=O)Nc1ccc(Nc2cc(-c3ccccc3)nc3ncnn23)cc1`, the inhibition is reported as inactive: 1.24%. For `CCOC(=O)c1ccc(NC(=O)CSc2n[nH]c(-c3ccncc3)n2)cc1`, the inhibition was inconclusive: 28%. In the case of `O=C(NNC(=O)c1ccccc1Br)c1ccc(Cl)cc1`, the inhibition is reported as inactive: -5.75%. In the case of `CCCCCCC(=O)N(O)C1CC(=O)N(c2ccc(Cl)cc2)C1=O` (stereo not drawn), the inhibition is reported as inconclusive: 27.3%. In the case of `CC(=O)Nn1cnc2c(c1=O)C1(CCCCC1)Cc1ccccc1-2`, the inhibition is reported as inactive: 4.35%. With `O=C(CSc1nc2ccccc2s1)NCCOc1ccc(Cl)cc1` the inhibition was inactive: -0.05%. In the case of `O=C(Nc1ccc(S(=O)(=O)Nc2cnc3ccccc3n2)cc1)c1ccc(Br)o1`, the inhibition is reported as inconclusive: 13.4%. With `O=c1cc(-c2ccc(O)c(O)c2)oc2cc(O)cc(O)c12` the inhibition was inconclusive: 45.2%. For `CCOC(=O)c1ccc(NC(=O)CSc2ncccn2)cc1`, the inhibition was active: 25.8%. With `Cc1ccc(C2=NC(=O)/C(=C/c3cc(O)c(O)c(Br)c3)S2)cc1` the inhibition was inconclusive: 26.4%. In the case of `Cc1ccccc1NC(=O)c1ccc(S(=O)(=O)N(C)C)cc1`, the inhibition is reported as inactive: 0.67%. For `c1ccc2c(c1)nc(N1CCOCC1)c1nncn12`, the inhibition was inactive: 4.1%. In the case of `O=c1cc(CSc2ccc(S(=O)(=O)N3CCCCC3)cn2)nc2sccn12`, the inhibition is reported as active: 24.1%. `Cc1cccc(OCC(=O)N2CCN(C(=O)CCC3CCCC3)CC2)c1` was tested, and the inhibition was inactive: 22.4%. For `Cc1nc2ccc(Cl)cc2c(-c2ccccc2Cl)c1CC(=O)O`, the inhibition was inactive: -0.5%. In the case of `CN(C)CCNc1oc(-c2cccc(Cl)c2)nc1C#N`, the inhibition is reported as inconclusive: 23.7%. `Cc1cc2c(C)c(C)c(=O)[nH]c2cc1N` was tested, and the inhibition was active: 25.2%. `CCOC(=O)C1=C(C)OC(N)=C(C#N)C1c1cc2cc(C)ccc2nc1N1CCCCC1` (stereo not drawn) was tested, and the inhibition was inconclusive: 24%. `CC1CCCCC1NC(=O)CSc1nnc(CNC(=O)c2ccccc2)n1C` (stereo not drawn) was tested, and the inhibition was inactive: -2.54%. For `COc1ccc(-c2csc(NC(=O)c3ccccc3NS(=O)(=O)c3ccc(F)c(F)c3)n2)cc1`, the inhibition was inconclusive: 24.1%. For `CCOC(=O)c1cc2c(=O)n3ccccc3nc2n(CCCOC)c1=NC(=O)c1cccnc1`, the inhibition was inconclusive: 18.2%. In the case of `CCOC(=O)c1[nH]cnc1C(=O)Nc1ccccc1`, the inhibition is reported as inactive: 19.7%. For `C#CCOC(=O)/C(=C/c1ccc(F)cc1)NC(C)=O`, the inhibition was inconclusive: 25.7%. In the case of `Cc1ccc(S(=O)(=O)NC(=O)c2ccc(-c3ccc(C)c4ccccc34)o2)cc1`, the inhibition is reported as inconclusive: 24.6%. `Cc1oc(C(=O)O)cc1COc1ccc2c3c(c(=O)oc2c1)CCC3` was tested, and the inhibition was inactive: 5.26%. In the case of `CC(=O)Cc1nsc(NC(=O)c2ccc(COc3ccccc3)o2)n1`, the inhibition is reported as active: 26.3%. `O=C(COC(=O)Cc1ccc(F)cc1)NCc1ccco1` was tested, and the inhibition was inactive: 4.03%. `O=c1oc2c(CN3CCOCC3)c(O)ccc2c2c1CCC2` was tested, and the inhibition was inconclusive: 23.6%. `COc1ccc(C2CC(c3ccccc3)=NN2c2ccc(Cl)c(C(=O)O)c2)cc1` (stereo not drawn) was tested, and the inhibition was inconclusive: 26.1%. With `O=c1c2cc(Cl)ccc2nc(-c2ccccc2)n1O` the inhibition was inactive: 3.06%. With `Cc1nc2c(c3c1[nH]c1ccccc13)C(O)CC(C)(C)C2` (stereo not drawn) the inhibition was inactive: 22.4%. With `O=C1N(Cc2ccccc2)CCCC12CCCN(Cc1ccccc1)C2=O` the inhibition was inactive: 8.22%. For `Cc1cccc(NC(=O)CSc2nnc(-c3ccco3)c(-c3ccco3)n2)c1`, the inhibition was inconclusive: 27.6%. In the case of `O=C(CSc1nc2nc(-c3cccs3)cc(C(F)(F)F)c2c(=O)[nH]1)NCc1ccco1`, the inhibition is reported as inconclusive: 29%. With `COC(=O)CSC1=C(C#N)C(c2ccc(C(C)C)cc2)CC(=O)N1` (stereo not drawn) the inhibition was active: 23.7%. In the case of `O=C(NCCc1ccccc1)C1CCCN(C(=O)NC2CCCCC2)C1` (stereo not drawn), the inhibition is reported as active: 28.2%. For `O=C(c1cnn2ccccc12)N1CCN(C2CCCCC2)CC1`, the inhibition was active: 26.7%. For `COC(=O)c1sc2cnccc2c1N`, the inhibition was inconclusive: 17.2%. `Cc1cc(-c2nc3c4c5c(sc4[nH]c(=O)n3n2)CCC5)c(C)o1` was tested, and the inhibition was active: 27.1%. `C=CCOc1ccc(C2c3c(oc4ccccc4c3=O)C(=O)N2CCCN2CCOCC2)cc1` (stereo not drawn) was tested, and the inhibition was active: 24.2%. `CC(C)COc1ccc(/C=C2/Sc3ccccc3C2=O)cc1` was tested, and the inhibition was inactive: -0.23%. In the case of `CC(=O)Nc1ccc(-c2ccccc2)s1`, the inhibition is reported as active: 25.4%. `O=C(c1ccco1)n1nc(-c2cccnc2)nc1NCc1ccco1` was tested, and the inhibition was inactive: 16.8%. For `O=C(O)c1ccccc1C(=O)NNc1cccc(Cl)n1`, the inhibition was inactive: 0.28%. With `CCOP(=O)(OCC)/C(C#N)=C/c1cc(OC)ccc1OC` the inhibition was inactive: 1.01%. With `Cn1c(SCC(=O)c2ccc(F)cc2)nnc1-c1cnccn1` the inhibition was inactive: -2.54%. With `CC(C)NC(=O)c1sc2nc(-c3cccs3)cc(-c3cccs3)c2c1N` the inhibition was active: 24.2%. In the case of `Cc1cc2c(cc1C)NC(c1ccccn1)C1=C(CC(C)(C)CC1=O)N2` (stereo not drawn), the inhibition is reported as active: 23.3%. For `CCOc1ccccc1-n1c(SCC(=O)N(C(C)C)C(C)C)nnc1-c1cccnc1`, the inhibition was inactive: 5.81%. For `Cc1cc(Cl)ccc1OCCCC(N)=O`, the inhibition was inactive: 1.94%. `COc1ccc(/C=C/C(=O)ONC2=NCCCCC2)cc1OC` was tested, and the inhibition was inconclusive: 26.3%. `CCOC(=O)C1CCCN(C(=O)c2cc(-c3ccc(F)cc3)nc3ccccc23)C1` (stereo not drawn) was tested, and the inhibition was inactive: 0.66%. With `O=C(O)c1ccc(Nc2nc(-c3cccnc3)nc3ccccc23)cc1` the inhibition was inactive: 10.8%. With `O=C(C1CCCCC1)N1CCCn2c1nc1ccccc12` the inhibition was active: 26.8%. For `Cc1ccc(C2Nc3ccc4ccccc4c3C3=C2C(=O)CC(C)(C)C3)o1` (stereo not drawn), the inhibition was inactive: 16%. With `CC(C)CCNC(=O)CN(Cc1ccc2c(c1)OCO2)C(=O)Cn1nnc(-c2cccs2)n1` the inhibition was active: 24.4%. For `O=C(CN=C1NS(=O)(=O)c2ccccc21)OCC(=O)c1ccccc1`, the inhibition was inconclusive: 25.1%. For `N#Cc1c(-c2ccccc2)nc(SCC(=O)Nc2ccccc2)[nH]c1=O`, the inhibition was inconclusive: 32%. For `Cc1cc(-c2nc3cccnc3s2)ccc1NS(=O)(=O)c1cccs1`, the inhibition was inconclusive: 38.6%. In the case of `CCOC(=O)c1ccc(N=c2sc(C(=O)OC)cc(=O)n2Cc2ccc3c(c2)OCO3)cc1`, the inhibition is reported as inactive: 4.78%. With `Cc1ccc(C(=O)Nc2ccccc2-c2ccccc2)o1` the inhibition was inactive: 5.46%. `CC(=O)Nc1c(O)nc(SCc2ccc(Cl)cc2)[nH]c1=O` was tested, and the inhibition was inconclusive: 27.6%. `COc1ccc(S(=O)(=O)N(C)CC(=O)N2CCOCC2)cc1Cl` was tested, and the inhibition was inconclusive: 23.3%. In the case of `N=c1c(C(=O)NCc2ccco2)cc2c(=O)n3ccccc3nc2n1CCc1ccccc1`, the inhibition is reported as inactive: 9.03%. `Nc1nonc1/C(=N/O)N1CCCC1` was tested, and the inhibition was inconclusive: 27.4%. In the case of `CCN=C1S/C(=C\c2ccc(-c3cccc(C(=O)O)c3)o2)C(=O)N1CC`, the inhibition is reported as inconclusive: 54.6%. For `CCOCCCN1CN(S(=O)(=O)c2ccc(Cl)cc2)c2nc3ccccc3nc21`, the inhibition was inconclusive: 24.7%. In the case of `CCCn1nc2cc(C(=O)NCc3ccccc3)ccc2c1OCC`, the inhibition is reported as inconclusive: 31%. With `C/C(O)=C(\N=Nc1cc(C)ccc1O)C(N)=O` the inhibition was inconclusive: 23.8%. With `CCOc1cccc(CNc2ccc(O)cc2)c1OCc1ccccc1Cl` the inhibition was inconclusive: 26%. In the case of `O=C(Nc1ccc(Cl)cn1)Nc1cccs1`, the inhibition is reported as inconclusive: 25.7%. In the case of `COc1ccc(C(=O)Nc2ccccc2C(=O)O)cc1NC(=O)C(c1ccccc1)c1ccccc1`, the inhibition is reported as inconclusive: 27.6%. `O=c1cccc2n1Cc1cc3ccccc3nc1-2` was tested, and the inhibition was inconclusive: 23.7%. In the case of `COc1ccc2[nH]c(=O)c(CN(Cc3cccnc3)C(=O)Nc3ccccc3)cc2c1`, the inhibition is reported as inconclusive: 31%. `Oc1ccc(Cl)cc1N=Cc1sc2ccccc2c1Cl` was tested, and the inhibition was inactive: 21%. In the case of `Cc1ccc(N(CC(=O)NC(C)(C)C)C(=O)CS(=O)CC(=O)Nc2ccc3c(c2)OCO3)cc1` (stereo not drawn), the inhibition is reported as inactive: 8.92%. For `Cc1nn(-c2ccccc2)c(Cl)c1/C=C1\SC(=S)N(C)C1=O`, the inhibition was inactive: -0.16%. In the case of `CC(C)(C)NC(=O)NC(=O)COC(=O)CCCc1c[nH]c2ccccc12`, the inhibition is reported as inactive: 3.27%. In the case of `O=C(/C=C/c1ccco1)Nc1cccc(C(=O)Nc2ccccc2C(=O)O)c1`, the inhibition is reported as inconclusive: 26.6%. `O=c1oc(-c2ccccc2NS(=O)(=O)c2ccc3ccccc3c2)nc2ccccc12` was tested, and the inhibition was inconclusive: 27.7%. In the case of `CCOC(=O)CNC(=O)Cc1ccc(OC)cc1`, the inhibition is reported as inactive: -3.67%. `N#C/C(=C/c1ccc(F)cc1)S(=O)(=O)c1ccccc1` was tested, and the inhibition was inactive: -4.5%. In the case of `O=c1[nH]c2cc3c(cc2cc1CN(Cc1ccccc1)Cc1nnnn1Cc1ccco1)OCCO3`, the inhibition is reported as inconclusive: 25.4%. `Cc1ccc2c(c1)S/C(=C/c1ccc[n+](C)c1)N2CCO` was tested, and the inhibition was inconclusive: 24.3%. With `CCOC(=O)c1cc2c(=O)n3ccccc3nc2n(CCCOC)c1=NC(C)=O` the inhibition was inconclusive: 23.2%. In the case of `CCCCNC(=O)c1cc2c(=O)n3cccc(C)c3nc2n(Cc2ccccc2)c1=N`, the inhibition is reported as inconclusive: 27.7%. In the case of `CN(C)S(=O)(=O)c1cccc(-c2nn(-c3ccccc3)cc2/C=C2\SC(=S)N(CC(=O)O)C2=O)c1`, the inhibition is reported as inconclusive: 28.7%. In the case of `COc1cc(CC(=O)Nc2sccc2C(N)=O)cc(OC)c1OC`, the inhibition is reported as inconclusive: 27.8%. In the case of `CSc1nc2sc3c(c2c(=O)n1C1CCCCC1)CCN(C)C3`, the inhibition is reported as inconclusive: 36.5%. In the case of `COc1ccc2cc3cc(C(=O)NCC4COc5ccccc5O4)oc3nc2c1` (stereo not drawn), the inhibition is reported as inactive: 3.66%. `Cc1cccn2c(=O)c3cc(C#N)c(=O)n(CCCN4CCOCC4)c3nc12` was tested, and the inhibition was inconclusive: 25.2%.
